From article PMC11425881
Where two headings read alike, the source gives them in different places. No constants are given. Whether binding was seen depends on the method and setting. In cells and extracts the contact can be indirect. These calls come from enrichment with a bait or labelling near it, and not all partners need be listed. Sequences can lack the tags named with a protein. Blank lines part the entries; values can stand above or below the molecule they belong to.

By UniProt entry, the sequences of proteins in these tests, tags left out.
UniProt Q9UNE7: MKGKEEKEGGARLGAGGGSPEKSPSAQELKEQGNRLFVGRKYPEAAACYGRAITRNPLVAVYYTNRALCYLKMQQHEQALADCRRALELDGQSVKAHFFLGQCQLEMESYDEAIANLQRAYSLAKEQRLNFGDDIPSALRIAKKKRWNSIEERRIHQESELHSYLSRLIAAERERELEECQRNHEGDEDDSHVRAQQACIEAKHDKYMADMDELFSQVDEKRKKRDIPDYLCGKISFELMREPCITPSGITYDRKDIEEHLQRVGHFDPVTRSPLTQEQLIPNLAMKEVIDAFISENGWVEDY
UniProt P11142: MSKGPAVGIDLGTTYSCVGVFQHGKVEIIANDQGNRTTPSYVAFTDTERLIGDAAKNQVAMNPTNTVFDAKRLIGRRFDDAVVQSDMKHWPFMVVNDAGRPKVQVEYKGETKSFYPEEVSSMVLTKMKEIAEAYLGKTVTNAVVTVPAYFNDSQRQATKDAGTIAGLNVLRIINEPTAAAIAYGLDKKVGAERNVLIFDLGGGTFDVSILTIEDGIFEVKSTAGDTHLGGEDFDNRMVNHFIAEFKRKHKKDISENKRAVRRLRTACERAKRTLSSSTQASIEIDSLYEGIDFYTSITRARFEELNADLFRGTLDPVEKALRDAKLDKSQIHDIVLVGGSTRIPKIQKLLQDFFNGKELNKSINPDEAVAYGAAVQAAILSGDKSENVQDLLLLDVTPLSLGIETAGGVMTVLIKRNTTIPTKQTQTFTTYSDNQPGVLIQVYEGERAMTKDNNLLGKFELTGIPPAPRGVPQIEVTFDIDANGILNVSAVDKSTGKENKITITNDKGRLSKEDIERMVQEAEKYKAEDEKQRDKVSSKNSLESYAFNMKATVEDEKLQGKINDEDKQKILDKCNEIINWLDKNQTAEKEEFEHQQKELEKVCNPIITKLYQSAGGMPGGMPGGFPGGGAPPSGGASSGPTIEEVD
UniProt P27361: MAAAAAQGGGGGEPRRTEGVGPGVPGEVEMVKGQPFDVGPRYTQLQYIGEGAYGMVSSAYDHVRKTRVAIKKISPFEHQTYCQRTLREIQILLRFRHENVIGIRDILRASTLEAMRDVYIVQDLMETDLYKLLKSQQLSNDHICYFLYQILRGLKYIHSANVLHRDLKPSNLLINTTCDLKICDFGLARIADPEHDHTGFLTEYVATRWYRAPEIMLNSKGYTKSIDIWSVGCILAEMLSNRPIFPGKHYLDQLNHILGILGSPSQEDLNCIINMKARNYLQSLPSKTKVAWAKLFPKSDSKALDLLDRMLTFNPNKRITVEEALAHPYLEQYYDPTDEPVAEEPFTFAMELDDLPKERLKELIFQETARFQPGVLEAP

What was measured:
Experiment in all cases: affinity purification with mass spectrometry; tagged bait (Flag-PAQR9, Myc-PAQR9 or Myc-PPM1α) expressed in HepG2 cells; proteins collected by co-IP, run on SDS-PAGE, digested and analysed by LC-MS
[1] = target: T1, Flag-tagged PAQR9 (progesterone and adiponectin receptor 9), expressed in HepG2 cells (UniProt Q6ZVX9)
T1 sequence: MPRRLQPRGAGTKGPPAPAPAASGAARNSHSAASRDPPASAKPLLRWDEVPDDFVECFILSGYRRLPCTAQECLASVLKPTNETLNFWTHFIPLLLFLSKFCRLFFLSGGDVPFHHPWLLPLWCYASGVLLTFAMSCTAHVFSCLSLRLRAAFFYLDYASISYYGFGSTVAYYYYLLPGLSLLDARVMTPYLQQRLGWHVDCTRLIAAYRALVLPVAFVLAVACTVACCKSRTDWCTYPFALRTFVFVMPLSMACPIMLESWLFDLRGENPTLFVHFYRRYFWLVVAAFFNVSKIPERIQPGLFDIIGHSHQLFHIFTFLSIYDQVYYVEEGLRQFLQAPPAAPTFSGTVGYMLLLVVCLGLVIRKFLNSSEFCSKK

[2] = target: T2, Myc-tagged PAQR9 (progesterone and adiponectin receptor 9), expressed in HepG2 cells (UniProt Q6ZVX9)
T2 sequence: T1 sequence

[3] = target: T3, Myc-tagged PPM1α, expressed in HepG2 cells (human (cDNA of HepG2 cells)) (UniProt P35813)
T3 sequence: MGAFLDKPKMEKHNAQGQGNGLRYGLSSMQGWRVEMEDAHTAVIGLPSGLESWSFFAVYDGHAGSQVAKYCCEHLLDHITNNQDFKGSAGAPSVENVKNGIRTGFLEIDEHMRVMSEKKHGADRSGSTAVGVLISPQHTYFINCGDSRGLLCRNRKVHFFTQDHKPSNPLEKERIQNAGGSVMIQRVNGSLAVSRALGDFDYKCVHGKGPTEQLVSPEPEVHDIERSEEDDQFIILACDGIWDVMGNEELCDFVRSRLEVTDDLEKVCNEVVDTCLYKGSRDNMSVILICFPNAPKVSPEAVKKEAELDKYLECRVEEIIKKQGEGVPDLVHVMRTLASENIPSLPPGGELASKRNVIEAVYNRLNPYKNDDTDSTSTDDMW

[4] = target: T1, Flag-tagged PAQR9 (progesterone and adiponectin receptor 9), expressed in HepG2 cells; remark: listed apart in the source
[5] = target: T2, Myc-tagged PAQR9 (progesterone and adiponectin receptor 9), expressed in HepG2 cells; remark: listed apart in the source

Molecule: STIP1 homology and U-box containing protein 1 (STUB1), endogenous in HepG2 cells (from UniProt Q9UNE7 1-303) (enzyme)
binding [1]: binds
binding [2]: binds
binding [3]: binds

B1: endogenous PPM1α (protein phosphatase, Mg2+/Mn2+ dependent 1) of HepG2 cells (enzyme, UniProt P35813 1-382)
chain: T3 sequence
binding [4]: binds
binding [5]: binds

Other lines, results leading:

binding [1]: binds
binding [2]: binds
binding [3]: binds
Molecule: HSPA8, endogenous in HepG2 cells (from UniProt P11142 1-646)

binding [3]: binds
Molecule: ERK1, endogenous in HepG2 cells (from UniProt P27361 1-379) (enzyme)
